Laboratory results taken from US20240034783A1.

Protein sequences, listed by entry. Tags and fused reporters are not part of them. Lines headed by an entry give the natural chain unless they say otherwise; changes in a name come on top.
UniProt P56857: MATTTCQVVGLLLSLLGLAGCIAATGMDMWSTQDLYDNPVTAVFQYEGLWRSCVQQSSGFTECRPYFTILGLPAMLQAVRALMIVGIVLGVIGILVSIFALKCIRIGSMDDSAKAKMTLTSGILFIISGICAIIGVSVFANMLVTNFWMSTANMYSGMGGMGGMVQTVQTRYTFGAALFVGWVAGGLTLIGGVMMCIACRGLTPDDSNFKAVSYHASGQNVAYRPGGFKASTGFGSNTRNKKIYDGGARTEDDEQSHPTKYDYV

B1: cCl1-1 (antibody, V domains shown)
VH: QIQLVQSGPELKKPGESVKISCKASGYTFTDYAMHWVKQAPGKGLKWMGWINTYTGKPTYADDFKGRFVFSLEASASTANLQISNLKNEDTATYFCARAVFYGYTMDAWGQGTSVTVSS
VL: DIQMTQSPASLSASLGETISIACRASEDIYSNLAWYQQKSGKSPQLLIFSVKRLQDGVPSRFSGSGSGTQYSLKISGMQPEDEGDYFCLQGSNFPLTFGSGTKLEIK
B2: hCl1a (antibody, human IgG1, kappa, V domains shown)
VH: QVQLVQSGAEVKKPGASVKVSCKASGYTFTDYAMHWVRQAPGQRLEWMGWINTYTGKPTYAQKFQGRVTITRDTSASTAYMELSSLRSEDTAVYYCARAVFYGYTMDAWGQGTLVTVSS
VL: DIQMTQSPSSLSASVGDRVTITCRASEDIYSNLAWYQQKPGKAPKLLIFSVKRLQDGVPSRFSGSGSGTDFTLTISSLQPEDFATYYCLQGSNFPLTFGQGTKVEIKR
B3: hCl1b (antibody, human IgG1, kappa, V domains shown)
VH: QVQLVQSGAEVKKPGASVKVSCKASGYTFTDYAMHWVRQAPGQRLEWMGWINTYTGKPTYSQKFQGRVTITRDTSASTAYMELSSLRSEDTAVYYCARAVFYGYTMDAWGQGTLVTVSS
VL: DIQMTQSPSSLSASVGDRVTITCRASEDIYSNLAWYQQKPGKAPKLLIFSVKRLQDGVPSRFSGSGSGTDFTLTISSLQPEDFATYYCLQGSNFPLTFGQGTKVEIKR
B4: hCl1c (antibody, human IgG1, kappa, V domains shown)
VH: QVQLVQSGAEVKKPGASVKVSCKASGYTFTDYAMHWVRQAPGQRLEWMGWINTYTGKPTYSQKFQGRVTITRDTSASTAYMELSSLRSEDTAVYYCARAVFYGYTMDAWGQGTLVTVSS
VL: DIQMTQSPSSLSASVGDRVTITCRTSEDIYSNLAWYQQKPGKAPKLLIFAIKRLQDGVPSRFSGSGSGTDFTLTISSLQPEDFATYYCLQGSKFPLTFGQGTKVEIKR
B5: hCl1f (antibody, human IgG1, kappa, V domains shown)
VH: QVQLVQSGAEVKKPGASVKVSCKASGYTFTDYAMHWVRQAPGQRLEWMGWINAYTGKPTYAQKFQGRVTITRDTSASTAYMELSSLRSEDTAVYYCARAVFYGYTMDAWGQGTLVTVSS
VL: DIQMTQSPSSLSASVGDRVTITCRASEDIYSNLAWYQQKPGKAPKLLIYSVKRLQDGVPSRFSGSGSGTDFTLTISSLQPEDFATYYCLQGSNFPLTFGQGTKVEIKR

Biological target: CLDN18.2 expressed in mouse healthy stomach tissue (mouse) (UniProt P56857)
Assay: flow cytometry on live cells from healthy mouse stomach

| Binder | binding |
| --- | --- |
| B1 | no binding (tested: 4 µg/ml; less than 1% of cells) |
| B2 | no binding (tested: 4 µg/ml; less than 1% of cells) |
| B3 | no binding (tested: 4 µg/ml; less than 1% of cells) |
| B4 | no binding (tested: 4 µg/ml; less than 1% of cells) |
| B5 | no binding (tested: 4 µg/ml; less than 1% of cells) |

These are yes or no findings as the source states them, for the method shown.
